Experimental data published in PubChem BioAssay AID2685 (National Center for Advancing Translational Sciences (NCATS), 2010).
Out of some 320,000 compounds screened, about 2,100 (0.66%) were called active. The shares of active, inactive and inconclusive entries below differ from those in the screen. Calls follow the shape of the dose curve; as a rule, active = well fitted inhibition curve with a large enough effect in the signal ratio, with a control signal flat (not every such curve was filed as active); inconclusive = small, poorly fitted or top-dose-only effect, or effect the other way, or a change in a side signal; inactive = flat fitted curve, though single readings scatter; the % refers to the signal ratio. Potencies beside an inconclusive call are fits to weak or partial responses and may not hold up.

Test: qHTS Assay for Lipid Storage Modulators in Drosophila S3 Cells
Details: BODIPY lipid droplet fluorescence, 18-24 h, cells fed with added oleic acid; lipid storage change, negative = inhibition: at 46.1 µM (top of the series) unless noted
Excerpt: NIH Molecular Libraries Probe Production Centers Network [MLPCN] NIH Chemical Genomics Center [NCGC] MLPCN Grant: 1 R03 MH085686-01 Assay Submitter (PI): Beller, Mathias; Max-Planck-Institut fur Biophysikalische Chemie NCGC Assay Overview: Storing lipids as a reservoir for energy or the anabolism of elementary metabolites is a common feature of probably all cells and is conserved from bacteria to humans. The universal cellular lipid storage organelle is the so-called lipid storage droplet (LD). Although ubiquitous, LDs share a simple structure composed of a hydrophobic core that harbors the storage lipids, which is shielded by a droplet-specific phospholipid monolayer to which proteins are attached. The current model of LD biogenesis involves an incorporation of the lipid core into the membrane leaflets of the endoplasmic reticulum (ER) followed by a subsequent budding-like maturation of a LD, which ultimately pinches off. Once released, LD volume can increase by localized lipogenesis or fusion of existing droplet. Storage lipids are re-mobilized enzymatically by lipase activity. Lipase regulation in the adipocyte is heavily studied and involves multiple components including catecholamine signaling, the LD-associated proteins Perilipin and comparative gene identification (CGI-58) and at least two lipases named hormone sensitive lipase (HSL) and adipocyte triglyceride lipase (ATGL). LD regulation outside of the adipocyte is poorly understood and only few components are known. However, there is an urgent need to learn more about ectopic fat depots as mislocalized storage of lipids, for example in the liver or muscle, is an eminent health problem associated with insulin resistance or the metabolic syndrome. We developed a laser-scanning cytometer assay to enable 1,536-well screening and combined the results of the small molecules screen with an RNAi database based on lipid storage.
Triacsin C (Sigma-Aldrich T-4540), an inhibitor of long-chain fatty acyl CoA synthetase that blocks synthesis of triglycerides, was used as a positive control for lipid under-storage. A total of 23 nL of compound solution of different concentrations were transferred to the assay plates using a Kalypsys pin tool equipped with a 1,536-pin array containing 10-nL slotted pins (FP1S10, 0.457-mm diameter, 50.8 mm long; V&P Scientific). One microliter of oleic acid (400 uM) was added, and the plate was lidded with stainless steel rubber gasket lined lids containing pinholes. […] Fluorescence was detected by excitation of the fluorophores with a 488-nm laser on an Acumen Explorer (TTP Lab Tech). The total intensity in channel 2 (500-530 nm) reflected lipid droplet accumulation. Cells were detected using channel 3 (575-640 nm) with 5-um width and 100-um depth filters. The ratio of the number of objects in PMT channel 2 over the number of objects in PMT channel 3 was also calculated. Percent activity was computed relative to an internal control (100% inhibited lipid droplet deposition due to the presence of 20 uM Triacsin C), which was added to 32 wells/plate.
% is scaled to controls: 0 for no effect and ±100 for the full control effect; potency is read from the fitted curve at half-maximal effect.

Lipid storage change, negative = inhibition, inactive:
Cn1c(NC(=O)/C=C\c2ccccc2)cc(=O)n(C)c1=O

Lipid storage change, negative = inhibition, inconclusive:
COc1ccc(OC)c(NC(=O)Cn2c(-c3ccc(Cl)cc3)noc2=O)c1 -8.03%
CCOC(=O)C1CCCN(C(=O)c2cc3cc(OC)c(OC)cc3[nH]2)C1 (stereo unspecified) -2.76%
CCN(CC)C(=O)Nc1ccc(Br)cc1 -54.9%
CSc1ccccc1NC(=O)CN(C)C(=O)CCc1c[nH]c2ccccc12 -176%
COc1cc(C(=S)N2CCOCC2)ccc1OC(=O)c1ccccc1 -100%
CCC(C)NC(=O)c1ccccc1NC(=O)c1ccc(CSc2ccccc2)cc1 (stereo unspecified) -32.6%
Cc1ccc(S(=O)(=O)N2CCOCC2)cc1C(=O)NCC1CCCO1 (stereo unspecified) 17.8%
COC(=O)c1nc(NC(=O)C(C)(C)C)n[nH]1 -16.1%
Cc1ccc(Nc2nnc(SCC(=O)NC3CCS(=O)(=O)C3)s2)c(C)c1 (stereo unspecified) 9.2%
Cc1nc(SCC(=O)N2CCCCC2)c2c(C)c(C)sc2n1 228%
COc1ccc(NC(=O)CSc2nc(N)c(NC(=O)c3ccccc3F)c(=O)[nH]2)cc1 4.31%
CCC(=O)Nc1nnc(S(=O)(=O)N(CC)c2ccc(OC)cc2)s1 39.6%
CC(=O)c1c(C)[nH]c(C(=O)COC(=O)c2cc(S(=O)(=O)N(C)c3ccccc3)ccc2Cl)c1C 30.7%
O=C(c1ccc(Br)o1)N1CCN=C1SCc1cccnc1 86.8%
Cc1ccc(NC(=S)c2nc3ccccc3[nH]2)cc1 -29.4%
COc1ccccc1Nc1nc(C)cc(C)n1 48.7%
CCOc1ccccc1NC(=O)c1ccccc1N(C)S(C)(=O)=O -46.8%
COc1ccccc1NC(=O)COC(=O)c1ccccc1SCC(=O)N1CCCC1 34.4%
O=C(N/N=C/c1c[nH]c2ccccc12)c1cccs1 8.17%
CCN=C(NCC)SC1CC(=O)N(c2ccc(F)cc2)C1=O (stereo unspecified) 16.3%
Cc1cccc(Oc2nc3ccccn3c(=O)c2/C=C(\C#N)C(=O)NC2CCS(=O)(=O)C2)c1C (stereo unspecified) 77.6%
O=C(Nc1nc(-c2ccccc2)cs1)c1ccccc1F 23.5%
CN1CCN(c2ccc(C(=O)c3ccc(Br)cc3)cc2[N+](=O)[O-])CC1 -4.99%
COc1cccc(NC(=O)N2CCC(NC(=O)C3CCCCC3)CC2)c1 -1.72%
COc1ccc2ccn(S(=O)(=O)c3ccccc3)c2c1 30.7%
O=C1/C(=C/c2ccccn2)SC(=S)N1c1cccc(O)c1 17.3%
CCCCNS(=O)(=O)c1ccc2nc(SCC(=O)c3ccccc3OC)[nH]c2c1 -22.8%
O=c1c2c(nc3cc(-c4ccccc4Cl)[nH]n13)CCS2 0.265%
Cc1ccc2[nH]c3c(Cl)ncnc3c2c1 6.98%
COc1cc(OC)c(C(=O)OCC(=O)Nc2c(C)n(C)n(-c3ccccc3)c2=O)cc1OC 3.62%
COC(=O)c1cn(Cc2ccccc2C)nn1 3.62%
Cn1c(-c2ccc(C(F)(F)F)cc2)cc2onc(-c3ccccc3)c2c1=O 15.4%
CC(C)(C)NS(=O)(=O)c1ccc(CCC(=O)N2CCCCC2)cc1 0.627%
Cc1ccccc1C(=O)NC1CCCN(Cc2ccccc2F)C1 (stereo unspecified) 15.5%
COCc1c(C(=O)N/N=C(\C)c2ccc(Cl)s2)nnn1-c1nonc1N -107%
COc1ccc(S(=O)(=O)c2nnn(-c3cccc(OC)c3)c2N)cc1 35.2%
CCc1cc(=O)oc2cc(C)cc(OCC(=O)N3CCC[C@@H]3C(=O)O)c12 73.1%

Some of these compounds in order of formula weight, high to low.
Lipid storage change, negative = inhibition, inconclusive:
COc1ccc(NC(=O)CSc2nc(N)c(NC(=O)c3ccccc3F)c(=O)[nH]2)cc1 4.31%
COc1ccccc1NC(=O)COC(=O)c1ccccc1SCC(=O)N1CCCC1 34.4%
CN1CCN(c2ccc(C(=O)c3ccc(Br)cc3)cc2[N+](=O)[O-])CC1 -4.99%

Next part:

Potency, inconclusive:
COc1ccc(C2SCCN2S(=O)(=O)c2ccc(NC(C)=O)cc2)cc1OC (stereo unspecified) 32.6 µM [activator, partial curve, poor fit]
Cn1cnnc1SCc1ccc(C(=O)N=Nc2c(O)n(C)c3ccccc23)cc1 0.259 µM [activator, full curve, poor fit]
C=CCOc1ccc(/C=N/NC(=O)C(=O)Nc2ccccn2)cc1OC 20.6 µM [activator, partial curve]
Cc1cc2nnc(SCC(=O)Nc3cc(S(=O)(=O)N4CCOCC4)ccc3Cl)n2c2ccccc12 0.326 µM [falling, full curve, poor fit]
Cc1ccc(-c2cc(-c3nnc(SCC(=O)NC(C)C(C)C)n3N)c3ccccc3n2)cc1 (stereo unspecified) 0.103 µM [activator, full curve, poor fit]
Cn1c(C(=O)N2CCN(c3nc4ccccc4s3)CC2)cc2sccc21 20.6 µM [activator, partial curve]
CN(Cc1nc2ccccc2c(=O)[nH]1)C(=O)c1ccc(S(=O)(=O)N2CCCC2)cc1 0.731 µM [falling, partial curve, poor fit]
CCn1c(C)c(C)c2cc(C(=O)NCCCN3CCCCC3C)ccc21 (stereo unspecified) 29.1 µM [activator, single point]
COc1ccc(N(CC(=O)Nc2ccc(C)c(C)c2)S(=O)(=O)c2c(C)noc2C)cc1 16.4 µM [falling, partial curve, poor fit]
Cc1ccc(NC(=O)CCn2nc(C)cc2C)cc1 29.1 µM [falling, single point]
CC(C)NC(=O)NC(=O)COC(=O)c1ccccc1O 0.517 µM [falling, full curve, poor fit]

Potency, active:
COc1ccc(-c2cc(C(=O)O)[nH]n2)cc1OC 18.4 µM
O=C(/C=C/c1cccc([N+](=O)[O-])c1)c1ccc2c(c1)OCCO2 18.4 µM
